Reference: US20190262327A1, “COMBINATION OF A BACE INHIBITOR AND AN ANTIBODY OR ANTIGEN-BINDING FRAGMENT FOR THE TREATMENT OF A DISORDER ASSOCIATED WITH THE ACCUMULATION OF AMYLOID BETA” (ASTRAZENECA AB, priority 2016, published 2019)
No constants are given. Whether binding was seen depends on the method and setting. Some results given as binding are weak or reduced against the parent protein; the word gives no strength.

Sequences of proteins named here, by UniProt entry; tags and fusion partners are left off. Residues count along the entry.
UniProt P05067, residues 672-713: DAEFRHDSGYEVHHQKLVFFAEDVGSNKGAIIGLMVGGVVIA

Legend:
[1] = biological target: native Amyloid beta in plaques on human Alzheimer's Disease brain sections (human) (UniProt P05067); assay: in vitro immunohistochemistry on brain sections; diffuse and CAA plaques
[2] = biological target: native Amyloid beta in plaques on human Alzheimer's Disease brain sections (human) (UniProt P05067); assay: in vitro immunohistochemistry on human AD brain sections

binding [1]: binds | binding [2]: binds
B1: Abet0380-GL (germlined) IgG1-TM (antibody, V domains shown)
VH: EVQLLESGGGLVQPGGSLRLSCAASMGNFNYQTMWWVRQAPGKGLEWVSVIGKTNENIAYADSVKGRFTISRDNSKNTLYLQMNSLRAEDTAVYYCAREWMDHSRPYYYYGMDVWGQGTLVTVSS
VL: SYELTQPPSVSVSPGQTASITCSGHNLEDKFASWYQQKPGQSPVLVIYRDDKRPSGIPERFSASNSGHTATLTISGTQAMDEADYYCSSQDTVTRVFGGGTKLTVL
